The target of the experiment is T1, Flag-SLC27A5 (solute carrier family 27 member 5, 3xFlag-tagged) (human) (UniProt Q9Y2P5).
T1 sequence: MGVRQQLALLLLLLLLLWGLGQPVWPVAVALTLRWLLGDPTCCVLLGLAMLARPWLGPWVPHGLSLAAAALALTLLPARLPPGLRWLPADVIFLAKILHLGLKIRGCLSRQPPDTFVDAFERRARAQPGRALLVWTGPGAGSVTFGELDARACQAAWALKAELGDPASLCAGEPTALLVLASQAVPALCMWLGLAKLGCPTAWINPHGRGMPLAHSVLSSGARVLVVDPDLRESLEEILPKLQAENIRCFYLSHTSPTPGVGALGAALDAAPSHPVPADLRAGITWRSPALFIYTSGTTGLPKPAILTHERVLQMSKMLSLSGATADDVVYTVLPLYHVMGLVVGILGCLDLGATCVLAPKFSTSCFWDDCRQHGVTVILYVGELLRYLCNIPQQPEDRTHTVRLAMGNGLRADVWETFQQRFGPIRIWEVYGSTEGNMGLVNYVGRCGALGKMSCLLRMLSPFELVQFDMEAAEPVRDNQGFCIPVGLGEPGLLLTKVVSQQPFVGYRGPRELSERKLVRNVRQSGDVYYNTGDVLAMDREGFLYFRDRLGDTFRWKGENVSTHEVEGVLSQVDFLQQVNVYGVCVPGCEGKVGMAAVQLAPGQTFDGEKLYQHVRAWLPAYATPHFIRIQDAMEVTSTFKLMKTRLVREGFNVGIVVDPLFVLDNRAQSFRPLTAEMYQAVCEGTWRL
Description: affinity purification with mass spectrometry; PLC/PRF/5 cells transfected with SLC27A5-TO4-3Flag or TO4-3Flag; ANTI-FLAG M2 affinity gel overnight at 4 °C; Coomassie-stained gel bands analysed by MS.

The chains behind the UniProt entries cited, without tags or fusion partners.
UniProt Q9Y6M1: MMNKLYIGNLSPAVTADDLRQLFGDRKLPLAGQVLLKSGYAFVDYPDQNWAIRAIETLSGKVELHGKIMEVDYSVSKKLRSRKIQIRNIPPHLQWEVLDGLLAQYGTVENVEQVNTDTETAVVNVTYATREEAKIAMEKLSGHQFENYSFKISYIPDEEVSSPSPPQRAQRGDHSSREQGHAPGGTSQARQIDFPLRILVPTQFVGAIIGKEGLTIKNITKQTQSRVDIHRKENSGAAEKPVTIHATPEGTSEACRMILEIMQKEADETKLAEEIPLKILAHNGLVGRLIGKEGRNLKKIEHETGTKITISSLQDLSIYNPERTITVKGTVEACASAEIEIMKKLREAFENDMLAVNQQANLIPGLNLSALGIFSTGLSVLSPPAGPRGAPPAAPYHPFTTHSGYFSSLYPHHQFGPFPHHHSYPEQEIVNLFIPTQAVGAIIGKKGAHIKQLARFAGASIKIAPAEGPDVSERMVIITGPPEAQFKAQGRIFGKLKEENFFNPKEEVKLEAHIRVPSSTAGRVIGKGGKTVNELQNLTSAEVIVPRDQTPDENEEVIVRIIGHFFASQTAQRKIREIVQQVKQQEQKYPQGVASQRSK
UniProt O00425: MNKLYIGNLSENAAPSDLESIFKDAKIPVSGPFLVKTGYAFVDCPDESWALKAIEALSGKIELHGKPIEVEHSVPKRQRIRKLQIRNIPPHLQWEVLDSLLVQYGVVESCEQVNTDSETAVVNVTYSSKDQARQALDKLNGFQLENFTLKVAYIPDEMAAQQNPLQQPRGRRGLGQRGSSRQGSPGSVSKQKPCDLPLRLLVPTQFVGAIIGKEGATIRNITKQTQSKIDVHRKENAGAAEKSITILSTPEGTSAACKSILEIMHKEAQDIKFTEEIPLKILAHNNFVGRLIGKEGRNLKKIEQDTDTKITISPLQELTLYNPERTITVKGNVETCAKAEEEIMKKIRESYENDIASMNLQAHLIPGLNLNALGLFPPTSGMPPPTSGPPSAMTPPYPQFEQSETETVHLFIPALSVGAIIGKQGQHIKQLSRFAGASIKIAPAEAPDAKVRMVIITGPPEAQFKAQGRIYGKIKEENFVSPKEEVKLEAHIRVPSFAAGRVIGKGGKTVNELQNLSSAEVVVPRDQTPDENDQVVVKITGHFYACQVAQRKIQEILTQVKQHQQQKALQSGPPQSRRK

Results are given in words; binding and its absence hold for the method and conditions named. In cells and extracts the contact can be indirect. A yes stands for co-enrichment or nearness to the bait. Other partners may have been found. Tags and fused reporters may be left off the sequences shown.

For “IGF2BP2 found by IP-MS in PLC/PRF/5 cells (from UniProt Q9Y6M1 1-599)”, the binding entry is given as “binds”.

Take “IGF2BP3 found by IP-MS in PLC/PRF/5 cells (from UniProt O00425 1-579)”: the binding entry is on record as “binds”.

For the origin of these results see article PMC10837360.
